{"source": "the supplement of paper PMC8728848", "binders": {"B1": {"name": "MFG-E8 (Mus musculus), P21956 (protein)", "chain": "MQVSRVLAALCGMLLCASGLFAASGDFCDSSLCLNGGTCLTGQDNDIYCLCPEGFTGLVCNETERGPCSPNPCYNDAKCLVTLDTQRGDIFTEYICQCPVGYSGIHCETETNYYNLDGEYMFTTAVPNTAVPTPAPTPDLSNNLASRCSTQLGMEGGAIADSQISASSVYMGFMGLQRWGPELARLYRTGIVNAWTASNYDSKPWIQVNLLRKMRVSGVMTQGASRAGRAEYLKTFKVAYSLDGRKFEFIQDESGGDKEFLGNLDNNSLKVNMFNPTLEAQYIKLYPVSCHRGCTLRFELLGCELHGCSEPLGLKNNTIPDSQMSASSSYKTWNLRAFGWYPHLGRLDNQGKINAWTAQSNSAKEWLQVDLGTQRQVTGIITQGARDFGHIQYVASYKVAHSDDGVQWTVYEEQGSSKVFQGNLDNNSHKKNIFEKPFMARYVRVLPVSWHNRITLRLELLGC"}}, "test_in_all_cases": "glycan array binding signal (z-score within array); higher = stronger binding", "settings_in_all_cases": "glycan notation: IUPAC condensed, linker removed", "key": {"[1]": {"molecular_target": "GlcNAc(b1-3)Gal(b1-4)GlcNAc(b1-3)Gal(b1-4)GlcNAc(b1-3)Gal(b1-4)GlcNAc(b1-3)Gal(b1-4)GlcNAc(b1-2)Man(a1-3)[GlcNAc(b1-3)Gal(b1-4)GlcNAc(b1-3)Gal(b1-4)GlcNAc(b1-3)Gal(b1-4)GlcNAc(b1-3)Gal(b1-4)GlcNAc(b1-2)Man(a1-6)]Man(b1-4)GlcNAc(b1-4)GlcNAc", "method_in_brief": "(§1)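 Arrays were curated from the Consortium for Functional Glycomics database, 3228 in total, and kept only where the protein sequence was available. Binding is expressed as a within-array Z-score. This score was averaged across arrays of the same protein sequence at different concentrations or buffers and across linkers, and negative values can be read as non-binding.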"}, "[2]": {"molecular_target": "GlcNAc(b1-3)Gal(b1-4)GlcNAc(b1-3)Gal(b1-4)GlcNAc(b1-3)Gal(b1-4)GlcNAc(b1-3)Gal(b1-4)GlcNAc(b1-2)Man(a1-3)[GlcNAc(b1-3)Gal(b1-4)GlcNAc(b1-3)Gal(b1-4)GlcNAc(b1-3)Gal(b1-4)GlcNAc(b1-3)Gal(b1-4)GlcNAc(b1-2)Man(a1-6)]Man(b1-4)GlcNAc(b1-4)[Fuc(a1-6)]GlcNAc", "method_in_brief": "as §1"}, "[3]": {"molecular_target": "GlcNAc(b1-3)Gal(b1-4)GlcNAc(b1-3)Gal(b1-4)GlcNAc(b1-3)Gal(b1-4)GlcNAc(b1-3)Gal(b1-4)GlcNAc(b1-2)[GlcNAc(b1-3)Gal(b1-4)GlcNAc(b1-3)Gal(b1-4)GlcNAc(b1-3)Gal(b1-4)GlcNAc(b1-3)Gal(b1-4)GlcNAc(b1-6)]Man(a1-6)[GlcNAc(b1-3)Gal(b1-4)GlcNAc(b1-3)Gal(b1-4)GlcNAc(b1-3)Gal(b1-4)GlcNAc(b1-3)Gal(b1-4)GlcNAc(b1-2)Man(a1-3)]Man(b1-4)GlcNAc(b1-4)[Fuc(a1-6)]GlcNAc", "method_in_brief": "as §1"}, "[4]": {"molecular_target": "GlcNAc(b1-3)Gal(b1-4)GlcNAc(b1-3)Gal(b1-4)GlcNAc(b1-3)GalNAc", "method_in_brief": "as §1"}, "[5]": {"molecular_target": "GlcNAc(b1-3)Gal(b1-4)GlcNAc(b1-3)GalNAc", "method_in_brief": "as §1"}, "[6]": {"molecular_target": "GlcNAc(b1-3)Gal(b1-4)GlcNAc(b1-3)[GlcNAc(b1-3)Gal(b1-4)GlcNAc(b1-3)]GalNAc", "method_in_brief": "as §1"}, "[7]": {"molecular_target": "GlcNAc(b1-3)Gal(b1-4)GlcNAc(b1-6)[Gal(b1-3)]GalNAc", "method_in_brief": "as §1"}, "[8]": {"molecular_target": "GlcNAc(b1-3)Gal(b1-4)GlcNAc(b1-6)[GlcNAc(b1-3)Gal(b1-3)]GalNAc", "method_in_brief": "as §1"}, "[9]": {"molecular_target": "GlcNAc(b1-3)Gal(b1-4)GlcNAc(b1-6)[GlcNAc(b1-3)]Gal(b1-4)GlcNAc", "method_in_brief": "as §1"}, "GlcNAc(b1-3)GalNAc": {"molecular_target": "GlcNAc(b1-3)GalNAc", "method_in_brief": "as §1"}, "GlcNAc(b1-3)Man": {"molecular_target": "GlcNAc(b1-3)Man", "method_in_brief": "as §1"}, "[10]": {"molecular_target": "GlcNAc(b1-3)[GlcNAc(b1-4)][GlcNAc(b1-6)]GlcNAc", "method_in_brief": "as §1"}, "[11]": {"molecular_target": "GlcNAc(b1-3)[GlcNAc(b1-6)]Gal(b1-4)GlcNAc", "method_in_brief": "as §1"}, "[12]": {"molecular_target": "GlcNAc(b1-3)[GlcNAc(b1-6)]GalNAc", "method_in_brief": "as §1"}, "[13]": {"molecular_target": "GlcNAc(b1-4)Gal(b1-4)GlcNAc", "method_in_brief": "as §1"}, "GlcNAc(b1-4)GlcNAc": {"molecular_target": "GlcNAc(b1-4)GlcNAc", "method_in_brief": "as §1"}, "[14]": {"molecular_target": "GlcNAc(b1-4)GlcNAc(b1-4)GlcNAc", "method_in_brief": "as §1"}, "[15]": {"molecular_target": "GlcNAc(b1-4)GlcNAc(b1-4)GlcNAc(b1-4)GlcNAc(b1-4)GlcNAc", "method_in_brief": "as §1"}, "[16]": {"molecular_target": "GlcNAc(b1-4)GlcNAc(b1-4)GlcNAc(b1-4)GlcNAc(b1-4)GlcNAc(b1-4)GlcNAc", "method_in_brief": "as §1"}, "[17]": {"molecular_target": "GlcNAc(b1-4)[GlcNAc(b1-6)]GalNAc", "method_in_brief": "as §1"}, "[18]": {"molecular_target": "GlcNAc(b1-6)Gal(b1-4)GlcNAc", "method_in_brief": "as §1"}, "GlcNAc(b1-6)GalNAc": {"molecular_target": "GlcNAc(b1-6)GalNAc", "method_in_brief": "as §1"}, "GlcNAc3Prop(b1-4)GlcNAc": {"molecular_target": "GlcNAc3Prop(b1-4)GlcNAc", "method_in_brief": "as §1"}, "[19]": {"molecular_target": "GlcNAc6S(b1-3)Gal(b1-4)GlcNAc", "method_in_brief": "as §1"}, "Kdn(a2-3)Gal(b1-3)GalNAc": {"molecular_target": "Kdn(a2-3)Gal(b1-3)GalNAc", "method_in_brief": "as §1"}, "Kdn(a2-3)Gal(b1-3)GlcNAc": {"molecular_target": "Kdn(a2-3)Gal(b1-3)GlcNAc", "method_in_brief": "as §1"}, "Kdn(a2-3)Gal(b1-4)Glc": {"molecular_target": "Kdn(a2-3)Gal(b1-4)Glc", "method_in_brief": "as §1"}, "Kdn(a2-3)Gal(b1-4)GlcNAc": {"molecular_target": "Kdn(a2-3)Gal(b1-4)GlcNAc", "method_in_brief": "as §1"}, "[20]": {"molecular_target": "Kdn(a2-3)Gal(b1-4)[Fuc(a1-3)]GlcNAc", "method_in_brief": "as §1"}, "Kdn(a2-6)Gal(b1-4)GlcNAc": {"molecular_target": "Kdn(a2-6)Gal(b1-4)GlcNAc", "method_in_brief": "as §1"}, "[21]": {"molecular_target": "Man(a1-2)Man(a1-2)Man(a1-3)Man", "method_in_brief": "as §1"}, "[22]": {"molecular_target": "Man(a1-2)Man(a1-2)Man(a1-6)[Man(a1-3)]Man", "method_in_brief": "as §1"}, "Man(a1-2)Man(a1-3)Man": {"molecular_target": "Man(a1-2)Man(a1-3)Man", "method_in_brief": "as §1"}, "[23]": {"molecular_target": "Man(a1-2)Man(a1-3)[Man(a1-2)Man(a1-6)]Man", "method_in_brief": "as §1"}, "[24]": {"molecular_target": "Man(a1-2)Man(a1-3)[Man(a1-2)Man(a1-6)]Man(a1-6)[Man(a1-2)Man(a1-2)Man(a1-3)]Man", "method_in_brief": "as §1"}, "[25]": {"molecular_target": "Man(a1-2)Man(a1-3)[Man(a1-2)Man(a1-6)]Man(a1-6)[Man(a1-2)Man(a1-2)Man(a1-3)]Man(b1-4)GlcNAc(b1-4)GlcNAc", "method_in_brief": "as §1"}, "[26]": {"molecular_target": "Man(a1-2)Man(a1-3)[Man(a1-6)]Man(a1-6)[Man(a1-2)Man(a1-3)]Man(b1-4)GlcNAc(b1-4)GlcNAc", "method_in_brief": "as §1"}}, "note": "The list shows a part of the results."}
{"binder": "B1", "values": [{"measurement": "glycan array binding signal (z-score)", "setting": "[1]", "value": 0.418}, {"measurement": "glycan array binding signal (z-score)", "setting": "[2]", "value": 0.534}, {"measurement": "glycan array binding signal (z-score)", "setting": "[3]", "value": 0.156}, {"measurement": "glycan array binding signal (z-score)", "setting": "[4]", "value": -0.017}, {"measurement": "glycan array binding signal (z-score)", "setting": "[5]", "value": 0.398}, {"measurement": "glycan array binding signal (z-score)", "setting": "[6]", "value": -0.154}, {"measurement": "glycan array binding signal (z-score)", "setting": "[7]", "value": -0.243}, {"measurement": "glycan array binding signal (z-score)", "setting": "[8]", "value": -0.461}, {"measurement": "glycan array binding signal (z-score)", "setting": "[9]", "value": -0.516}, {"measurement": "glycan array binding signal (z-score)", "setting": "GlcNAc(b1-3)GalNAc", "value": -0.377}, {"measurement": "glycan array binding signal (z-score)", "setting": "GlcNAc(b1-3)Man", "value": -0.523}, {"measurement": "glycan array binding signal (z-score)", "setting": "[10]", "value": 1.84}, {"measurement": "glycan array binding signal (z-score)", "setting": "[11]", "value": -0.032}, {"measurement": "glycan array binding signal (z-score)", "setting": "[12]", "value": -0.369}, {"measurement": "glycan array binding signal (z-score)", "setting": "[13]", "value": -0.063}, {"measurement": "glycan array binding signal (z-score)", "setting": "GlcNAc(b1-4)GlcNAc", "value": 0.017}, {"measurement": "glycan array binding signal (z-score)", "setting": "[14]", "value": -0.582}, {"measurement": "glycan array binding signal (z-score)", "setting": "[15]", "value": 0.23}, {"measurement": "glycan array binding signal (z-score)", "setting": "[16]", "value": -0.779}, {"measurement": "glycan array binding signal (z-score)", "setting": "[17]", "value": -0.764}, {"measurement": "glycan array binding signal (z-score)", "setting": "[18]", "value": -0.789}, {"measurement": "glycan array binding signal (z-score)", "setting": "GlcNAc(b1-6)GalNAc", "value": 0.316}, {"measurement": "glycan array binding signal (z-score)", "setting": "GlcNAc3Prop(b1-4)GlcNAc", "value": -0.899}, {"measurement": "glycan array binding signal (z-score)", "setting": "[19]", "value": -0.316}, {"measurement": "glycan array binding signal (z-score)", "setting": "Kdn(a2-3)Gal(b1-3)GalNAc", "value": -0.006}, {"measurement": "glycan array binding signal (z-score)", "setting": "Kdn(a2-3)Gal(b1-3)GlcNAc", "value": -0.083}, {"measurement": "glycan array binding signal (z-score)", "setting": "Kdn(a2-3)Gal(b1-4)Glc", "value": -0.226}, {"measurement": "glycan array binding signal (z-score)", "setting": "Kdn(a2-3)Gal(b1-4)GlcNAc", "value": 0.153}, {"measurement": "glycan array binding signal (z-score)", "setting": "[20]", "value": -0.674}, {"measurement": "glycan array binding signal (z-score)", "setting": "Kdn(a2-6)Gal(b1-4)GlcNAc", "value": -0.046}, {"measurement": "glycan array binding signal (z-score)", "setting": "[21]", "value": -0.155}, {"measurement": "glycan array binding signal (z-score)", "setting": "[22]", "value": -0.25}, {"measurement": "glycan array binding signal (z-score)", "setting": "Man(a1-2)Man(a1-3)Man", "value": -0.726}, {"measurement": "glycan array binding signal (z-score)", "setting": "[23]", "value": 0.255}, {"measurement": "glycan array binding signal (z-score)", "setting": "[24]", "value": -0.501}, {"measurement": "glycan array binding signal (z-score)", "setting": "[25]", "value": 0.008}, {"measurement": "glycan array binding signal (z-score)", "setting": "[26]", "value": 0.395}]}
